Results taken from patent US20190374607A1.
These are yes or no findings as the source states them, for the method shown. Some entries that bind do so weakly or less than the wild type.

Biological target: CXCL121 monomer (constitutively monomeric CXCL12 variant, L55C/I58C) (Felis catus (Cat) (Felis silvestris catus)) (UniProt O62657)
Experiment: 2D NMR

- binding: binds
Substance: intact CXCR4 1-38 N-terminal domain (from UniProt P61073 1-38) (peptide)
